# The match of structure and compound is tentative.
# Chains of the proteins cited; added tags and fusions are not shown.
# UniProt Q99640, whole entry: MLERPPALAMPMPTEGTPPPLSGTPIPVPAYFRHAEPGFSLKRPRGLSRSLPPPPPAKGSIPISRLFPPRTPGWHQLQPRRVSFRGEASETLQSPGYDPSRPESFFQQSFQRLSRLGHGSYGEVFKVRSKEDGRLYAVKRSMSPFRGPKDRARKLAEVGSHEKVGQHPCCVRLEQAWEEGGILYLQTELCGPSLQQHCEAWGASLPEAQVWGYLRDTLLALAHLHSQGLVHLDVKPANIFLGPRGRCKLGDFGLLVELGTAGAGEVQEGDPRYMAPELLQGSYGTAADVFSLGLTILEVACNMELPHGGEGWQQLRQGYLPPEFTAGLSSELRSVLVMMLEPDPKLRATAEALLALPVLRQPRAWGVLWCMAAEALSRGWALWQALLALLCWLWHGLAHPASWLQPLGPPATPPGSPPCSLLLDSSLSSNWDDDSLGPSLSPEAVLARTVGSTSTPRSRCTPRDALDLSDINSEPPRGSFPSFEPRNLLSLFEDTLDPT
# Molecular target: recombinant human Myt1 (Homo sapiens, UniProt Q99640)
# Assay: Myt1 enzymatic assay (ADP-Glo kinase assay, IC50 and % max inhibition)
# Format: biochemical
# Details: read-out: Myt1 IC50
row,Compound,IC50
1,Cc1ccc(O)c(C)c1-n1cc(C(N)=O)c2cc(C3CC3)cnc21 [144],< 0.01 µM
2,Cc1ccc(O)c(C)c1-n1cc(C(N)=O)c2cc(C3CC3)cnc21 [145],> 2 µM

# Same assay, conditions: read-out: Myt1 IC50; recombinant human Myt1 18 nM, ATP 10 μM, ADP-Glo
row,Compound,IC50
1,Cc1ccc(O)c(C)c1-n1c(N)c(C(N)=O)c2nc(-c3cnccn3)cnc21 [39],> 5 µM
2,Cc1ccc(O)c(C)c1-n1c(N)c(C(N)=O)c2nc(-c3cnccn3)cnc21 [40],< 0.01 µM
3,Cc1ccc(-c2cnc3c(n2)c(C(N)=O)c(N)n3-c2c(C)ccc(O)c2C)nc1 [62],> 5 µM
4,Cc1ccc(-c2cnc3c(n2)c(C(N)=O)c(N)n3-c2c(C)ccc(O)c2C)nc1 [63],< 0.01 µM
5,Cc1ccc(O)c(C)c1-n1c(N)c(C(N)=O)c2nc(C3CCCCC3)cnc21 [82],> 5 µM
6,Cc1ccc(O)c(C)c1-n1c(N)c(C(N)=O)c2nc(C3CCCCC3)cnc21 [84],< 0.01 µM
7,CCN(CC)c1cnc2c(n1)c(C(N)=O)c(N)n2-c1c(C)ccc(O)c1C [89],< 0.01 µM
8,CCN(CC)c1cnc2c(n1)c(C(N)=O)c(N)n2-c1c(C)ccc(O)c1C [90],2.8 µM
9,CC(=O)c1c(N)n(-c2c(C)ccc(O)c2C)c2ncc(-c3cnccn3)nc12 [98],> 5 µM
10,CC(=O)c1c(N)n(-c2c(C)ccc(O)c2C)c2ncc(-c3cnccn3)nc12 [99],< 0.01 µM
11,Cc1ccc(O)c(Cl)c1-n1c(N)c(C(N)=O)c2nc(C3CC3)cnc21 [105],3.06 µM
12,Cc1ccc(O)c(Cl)c1-n1c(N)c(C(N)=O)c2nc(C3CC3)cnc21 [106],< 0.01 µM
13,Cc1ccc(O)c(C)c1-n1c(N)c(C(N)=O)c2c(C)c(C)cnc21 [126],< 0.01 µM
14,Cc1ccc(O)c(C)c1-n1c(N)c(C(N)=O)c2c(C)c(C)cnc21 [127],0.271 µM
15,Cc1ccc(O)c(C)c1-n1c(N)c(C(N)=O)c2cc(C(C)C)cnc21 [139],< 0.01 µM
16,Cc1ccc(O)c(C)c1-n1c(N)c(C(N)=O)c2cc(C(C)C)cnc21 [140],0.526 µM
17,Cc1ccc(O)c(Cl)c1-n1c(N)c(C(N)=O)c2nc(C)c(C)nc21 [171],6.14 µM
18,Cc1ccc(O)c(Cl)c1-n1c(N)c(C(N)=O)c2nc(C)c(C)nc21 [172],< 0.01 µM
19,Cc1ccc(O)c(C)c1-n1c(N)c(C(N)=O)c2nc(C3CCC3)cnc21 [174],< 0.01 µM
20,Cc1ccc(O)c(C)c1-n1c(N)c(C(N)=O)c2nc(C3CCC3)cnc21 [175],> 5 µM
21,Cc1ccc(O)c(C)c1-n1c(N)c(C(N)=O)c2cc(Br)c(C)nc21 [188],< 0.01 µM
22,Cc1ccc2c(C(N)=O)c(N)n(-c3c(C)ccc(O)c3C)c2n1 [194],> 2 µM
23,Cc1ccc2c(C(N)=O)c(N)n(-c3c(C)ccc(O)c3C)c2n1 [195],< 0.01 µM

row,Compound,IC50
1,Cc1ccc(O)c(Br)c1-n1c(N)c(C(N)=O)c2cc(Cl)cnc21 [290],< 0.01 µM
2,Cc1ccc(O)c(Br)c1-n1c(N)c(C(N)=O)c2cc(Cl)cnc21 [291],> 2 µM
3,Cc1ccc(O)c(C)c1-n1c(N)c(C(N)=O)c2cc(-c3ccccn3)cnc21 [296],< 0.01 µM
4,Cc1ccc(O)c(C)c1-n1c(N)c(C(N)=O)c2cc(-c3ccccn3)cnc21 [297],> 2 µM
5,Cc1ccc(O)c(C)c1-n1c(N)c(C(N)=O)c2cc(N3CCCC3=O)cnc21 [299],< 0.01 µM
6,Cc1ccc(O)c(C)c1-n1c(N)c(C(N)=O)c2cc(N3CCCC3=O)cnc21 [300],> 2 µM
7,Cc1c(O)ccc(Br)c1-n1c(N)c(C(N)=O)c2cc(Cl)cnc21 [302],< 0.01 µM
8,Cc1c(O)ccc(Br)c1-n1c(N)c(C(N)=O)c2cc(Cl)cnc21 [303],> 2 µM
9,Cc1ccc(O)c(C)c1-n1c(N)c(C(N)=O)c2cc(C3=CCOCC3)cnc21 [305],< 0.01 µM
10,Cc1ccc(O)c(C)c1-n1c(N)c(C(N)=O)c2cc(C3=CCOCC3)cnc21 [306],> 2 µM
11,Cc1ccc(O)c(C)c1-n1c(N)c(C(N)=O)c2cc(-c3nccs3)cnc21 [309],< 0.01 µM
12,Cc1ccc(O)c(C)c1-n1c(N)c(C(N)=O)c2cc(-c3nccs3)cnc21 [310],> 2 µM
13,Cc1ccc(O)c(C)c1-n1c(N)c(C(N)=O)c2c(C)c(Cl)cnc21 [314],< 0.01 µM
14,Cc1ccc(O)c(C)c1-n1c(N)c(C(N)=O)c2c(C)c(Cl)cnc21 [315],> 2 µM
15,Cc1ccc(O)c(C)c1-n1c(N)c(C(N)=O)c2c(Cl)c(Cl)cnc21 [317],< 0.01 µM
16,Cc1ccc(O)c(C)c1-n1c(N)c(C(N)=O)c2c(Cl)c(Cl)cnc21 [318],> 2 µM
17,Cc1ccc(O)c(C)c1-n1c(N)c(C(N)=O)c2cc(I)cnc21 [320],< 0.01 µM
18,Cc1ccc(O)c(C)c1-n1c(N)c(C(N)=O)c2cc(I)cnc21 [321],> 2 µM
19,Cc1ccc(O)c(C)c1-n1c(N)c(C(N)=O)c2cc(C(C)(C)O)cnc21 [322],< 0.01 µM
20,Cc1ccc(O)c(C)c1-n1c(N)c(C(N)=O)c2cc(C(C)(C)O)cnc21 [323],> 2 µM
21,[2H]C([2H])([2H])c1nc2c(nc1C1CC1)c(C(N)=O)c(N)n2-c1c(C)ccc(O)c1C [Compound 111],< 0.01 µM
22,Cc1ccc(O)c(C)c1-n1c(N)c(C(N)=O)c2cc(Br)cnc21 [Compound 141],< 0.01 µM

# Reference: patent US20230151014A1 (Repare Therapeutics Inc., priority 2020, published 2023)
